# Experimental data taken from PMC5643558.
# Protein sequences, listed by entry. Tags and fused reporters are not part of them.
# UniProt P19474: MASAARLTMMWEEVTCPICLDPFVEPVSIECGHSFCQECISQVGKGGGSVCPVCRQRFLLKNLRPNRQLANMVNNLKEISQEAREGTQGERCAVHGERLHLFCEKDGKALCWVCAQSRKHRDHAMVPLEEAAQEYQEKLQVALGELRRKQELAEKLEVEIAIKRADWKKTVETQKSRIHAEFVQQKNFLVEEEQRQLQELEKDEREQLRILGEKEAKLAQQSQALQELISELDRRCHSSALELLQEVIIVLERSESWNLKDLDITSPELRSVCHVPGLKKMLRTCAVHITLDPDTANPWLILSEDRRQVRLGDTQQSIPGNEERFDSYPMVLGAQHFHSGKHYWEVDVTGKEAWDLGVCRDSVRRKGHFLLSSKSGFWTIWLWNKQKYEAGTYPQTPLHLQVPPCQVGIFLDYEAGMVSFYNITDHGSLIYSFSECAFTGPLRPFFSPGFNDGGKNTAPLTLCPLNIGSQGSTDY
# UniProt P31749: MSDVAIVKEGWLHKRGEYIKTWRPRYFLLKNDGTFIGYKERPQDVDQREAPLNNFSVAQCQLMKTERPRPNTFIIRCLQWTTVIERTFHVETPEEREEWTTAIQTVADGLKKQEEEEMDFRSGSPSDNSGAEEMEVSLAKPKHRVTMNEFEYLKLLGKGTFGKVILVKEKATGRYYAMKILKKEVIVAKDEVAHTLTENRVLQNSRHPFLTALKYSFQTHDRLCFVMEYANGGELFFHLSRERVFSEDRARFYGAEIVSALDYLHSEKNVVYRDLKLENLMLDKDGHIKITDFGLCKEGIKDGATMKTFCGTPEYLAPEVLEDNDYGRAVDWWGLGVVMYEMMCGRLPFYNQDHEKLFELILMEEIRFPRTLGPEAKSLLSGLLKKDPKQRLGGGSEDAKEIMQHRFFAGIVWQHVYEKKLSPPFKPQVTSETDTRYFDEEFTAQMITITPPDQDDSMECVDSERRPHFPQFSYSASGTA
# These are yes or no findings as the source states them, for the method shown. For some assays here: Binding seen in cells or lysates may run through a third protein. Some results given as binding are weak or reduced against the parent protein; the word gives no strength. Sequences can lack the tags named with a protein.
# Legend:
# [1] = target: SFB-TRIM21 in U251 cells (human) (UniProt P19474); assay: pull-down; PFKP-depleted U251 cells with WT Flag-rPFKP or Flag-rPFKP S386A, transfected with SFB-TRIM21; with or without EGF (100 ng/ml) for the indicated times; pull-down of SFB-TRIM21
# [2] = target: SFB-TRIM21 (Fig. 5p) (human) (UniProt P19474); assay: pull-down; PFKP-depleted 293T cells (text: U251 cells) with WT Flag-rPFKP or Flag-rPFKP S386D, transfected with SFB-TRIM21; pull-down of SFB-TRIM21
# [3] = target: purified recombinant GST-AKT1 (UniProt P31749); assay: pull-down; GST pull-down; purified His-PFKP mixed with purified GST or GST-AKT1; glutathione agarose beads; both purified
Binder,binding [1],binding [2],also measured
"WT Flag-rPFKP in U251 cells (protein, UniProt Q01813 1-784) MDADDSRAPKGSLRKFLEHLSGAGKAIGVLTSGGDAQGMNAAVRAVVRMGIYVGAKVYFIYEGYQGMVDGGSNIAEADWESVSSILQVGGTIIGSARCQAFRTREGRLKAACNLLQRGITNLCVIGGDGSLTGANLFRKEWSGLLEELARNGQIDKEAVQKYAYLNVVGMVGSIDNDFCGTDMTIGTDSALHRIIEVVDAIMTTAQSHQRTFVLEVMGRHCGYLALVSALACGADWVFLPESPPEEGWEEQMCVKLSENRARKKRLNIIIVAEGAIDTQNKPITSEKIKELVVTQLGYDTRVTILGHVQRGGTPSAFDRILASRMGVEAVIALLEATPDTPACVVSLNGNHAVRLPLMECVQMTQDVQKAMDERRFQDAVRLRGRSFAGNLNTYKRLAIKLPDDQIPKTNCNVAVINVGAPAAGMNAAVRSAVRVGIADGHRMLAIYDGFDGFAKGQIKEIGWTDVGGWTGQGGSILGTKRVLPGKYLEEIATQMRTHSINALLIIGGFEAYLGLLELSAAREKHEEFCVPMVMVPATVSNNVPGSDFSIGADTALNTITDTCDRIKQSASGTKRRVFIIETMGGYCGYLANMGGLAAGADAAYIFEEPFDIRDLQSNVEHLTEKMKTTIQRGLVLRNESCSENYTTDFIYQLYSEEGKGVFDCRKNVLGHMQQGGAPSPFDRNFGTKISARAMEWITAKLKEARGRGKKFTTDDSICVLGISKRNVIFQPVAELKKQTDFEHRIPKEQWWLKLRPLMKILAKYKASYDVSDSGQLEHVQPWSV",binds,–,–
"Flag-rPFKP S386A in U251 cells (protein, UniProt Q01813 1-784) MDADDSRAPKGSLRKFLEHLSGAGKAIGVLTSGGDAQGMNAAVRAVVRMGIYVGAKVYFIYEGYQGMVDGGSNIAEADWESVSSILQVGGTIIGSARCQAFRTREGRLKAACNLLQRGITNLCVIGGDGSLTGANLFRKEWSGLLEELARNGQIDKEAVQKYAYLNVVGMVGSIDNDFCGTDMTIGTDSALHRIIEVVDAIMTTAQSHQRTFVLEVMGRHCGYLALVSALACGADWVFLPESPPEEGWEEQMCVKLSENRARKKRLNIIIVAEGAIDTQNKPITSEKIKELVVTQLGYDTRVTILGHVQRGGTPSAFDRILASRMGVEAVIALLEATPDTPACVVSLNGNHAVRLPLMECVQMTQDVQKAMDERRFQDAVRLRGRAFAGNLNTYKRLAIKLPDDQIPKTNCNVAVINVGAPAAGMNAAVRSAVRVGIADGHRMLAIYDGFDGFAKGQIKEIGWTDVGGWTGQGGSILGTKRVLPGKYLEEIATQMRTHSINALLIIGGFEAYLGLLELSAAREKHEEFCVPMVMVPATVSNNVPGSDFSIGADTALNTITDTCDRIKQSASGTKRRVFIIETMGGYCGYLANMGGLAAGADAAYIFEEPFDIRDLQSNVEHLTEKMKTTIQRGLVLRNESCSENYTTDFIYQLYSEEGKGVFDCRKNVLGHMQQGGAPSPFDRNFGTKISARAMEWITAKLKEARGRGKKFTTDDSICVLGISKRNVIFQPVAELKKQTDFEHRIPKEQWWLKLRPLMKILAKYKASYDVSDSGQLEHVQPWSV",binds,–,–
"WT Flag-rPFKP (Fig. 5p) (protein, UniProt Q01813 1-784) MDADDSRAPKGSLRKFLEHLSGAGKAIGVLTSGGDAQGMNAAVRAVVRMGIYVGAKVYFIYEGYQGMVDGGSNIAEADWESVSSILQVGGTIIGSARCQAFRTREGRLKAACNLLQRGITNLCVIGGDGSLTGANLFRKEWSGLLEELARNGQIDKEAVQKYAYLNVVGMVGSIDNDFCGTDMTIGTDSALHRIIEVVDAIMTTAQSHQRTFVLEVMGRHCGYLALVSALACGADWVFLPESPPEEGWEEQMCVKLSENRARKKRLNIIIVAEGAIDTQNKPITSEKIKELVVTQLGYDTRVTILGHVQRGGTPSAFDRILASRMGVEAVIALLEATPDTPACVVSLNGNHAVRLPLMECVQMTQDVQKAMDERRFQDAVRLRGRSFAGNLNTYKRLAIKLPDDQIPKTNCNVAVINVGAPAAGMNAAVRSAVRVGIADGHRMLAIYDGFDGFAKGQIKEIGWTDVGGWTGQGGSILGTKRVLPGKYLEEIATQMRTHSINALLIIGGFEAYLGLLELSAAREKHEEFCVPMVMVPATVSNNVPGSDFSIGADTALNTITDTCDRIKQSASGTKRRVFIIETMGGYCGYLANMGGLAAGADAAYIFEEPFDIRDLQSNVEHLTEKMKTTIQRGLVLRNESCSENYTTDFIYQLYSEEGKGVFDCRKNVLGHMQQGGAPSPFDRNFGTKISARAMEWITAKLKEARGRGKKFTTDDSICVLGISKRNVIFQPVAELKKQTDFEHRIPKEQWWLKLRPLMKILAKYKASYDVSDSGQLEHVQPWSV",–,binds,–
"Flag-rPFKP S386D (protein, UniProt Q01813 1-784) MDADDSRAPKGSLRKFLEHLSGAGKAIGVLTSGGDAQGMNAAVRAVVRMGIYVGAKVYFIYEGYQGMVDGGSNIAEADWESVSSILQVGGTIIGSARCQAFRTREGRLKAACNLLQRGITNLCVIGGDGSLTGANLFRKEWSGLLEELARNGQIDKEAVQKYAYLNVVGMVGSIDNDFCGTDMTIGTDSALHRIIEVVDAIMTTAQSHQRTFVLEVMGRHCGYLALVSALACGADWVFLPESPPEEGWEEQMCVKLSENRARKKRLNIIIVAEGAIDTQNKPITSEKIKELVVTQLGYDTRVTILGHVQRGGTPSAFDRILASRMGVEAVIALLEATPDTPACVVSLNGNHAVRLPLMECVQMTQDVQKAMDERRFQDAVRLRGRDFAGNLNTYKRLAIKLPDDQIPKTNCNVAVINVGAPAAGMNAAVRSAVRVGIADGHRMLAIYDGFDGFAKGQIKEIGWTDVGGWTGQGGSILGTKRVLPGKYLEEIATQMRTHSINALLIIGGFEAYLGLLELSAAREKHEEFCVPMVMVPATVSNNVPGSDFSIGADTALNTITDTCDRIKQSASGTKRRVFIIETMGGYCGYLANMGGLAAGADAAYIFEEPFDIRDLQSNVEHLTEKMKTTIQRGLVLRNESCSENYTTDFIYQLYSEEGKGVFDCRKNVLGHMQQGGAPSPFDRNFGTKISARAMEWITAKLKEARGRGKKFTTDDSICVLGISKRNVIFQPVAELKKQTDFEHRIPKEQWWLKLRPLMKILAKYKASYDVSDSGQLEHVQPWSV",–,binds,–
"His-PFKP (enzyme, UniProt Q01813 1-784) MDADDSRAPKGSLRKFLEHLSGAGKAIGVLTSGGDAQGMNAAVRAVVRMGIYVGAKVYFIYEGYQGMVDGGSNIAEADWESVSSILQVGGTIIGSARCQAFRTREGRLKAACNLLQRGITNLCVIGGDGSLTGANLFRKEWSGLLEELARNGQIDKEAVQKYAYLNVVGMVGSIDNDFCGTDMTIGTDSALHRIIEVVDAIMTTAQSHQRTFVLEVMGRHCGYLALVSALACGADWVFLPESPPEEGWEEQMCVKLSENRARKKRLNIIIVAEGAIDTQNKPITSEKIKELVVTQLGYDTRVTILGHVQRGGTPSAFDRILASRMGVEAVIALLEATPDTPACVVSLNGNHAVRLPLMECVQMTQDVQKAMDERRFQDAVRLRGRSFAGNLNTYKRLAIKLPDDQIPKTNCNVAVINVGAPAAGMNAAVRSAVRVGIADGHRMLAIYDGFDGFAKGQIKEIGWTDVGGWTGQGGSILGTKRVLPGKYLEEIATQMRTHSINALLIIGGFEAYLGLLELSAAREKHEEFCVPMVMVPATVSNNVPGSDFSIGADTALNTITDTCDRIKQSASGTKRRVFIIETMGGYCGYLANMGGLAAGADAAYIFEEPFDIRDLQSNVEHLTEKMKTTIQRGLVLRNESCSENYTTDFIYQLYSEEGKGVFDCRKNVLGHMQQGGAPSPFDRNFGTKISARAMEWITAKLKEARGRGKKFTTDDSICVLGISKRNVIFQPVAELKKQTDFEHRIPKEQWWLKLRPLMKILAKYKASYDVSDSGQLEHVQPWSV",–,–,binding [3]: binds
